Article PMC8509203, “Members of the GADD45 Protein Family Show Distinct Propensities to form Toxic Amyloid-Like Aggregates in Physiological Conditions” (International Journal of Molecular Sciences, 2021)
Results are given in words; binding and its absence hold for the method and conditions named.

T1: GADD45α (growth arrest and DNA damage-inducible 45 alpha) (human), P24522
T1 chain: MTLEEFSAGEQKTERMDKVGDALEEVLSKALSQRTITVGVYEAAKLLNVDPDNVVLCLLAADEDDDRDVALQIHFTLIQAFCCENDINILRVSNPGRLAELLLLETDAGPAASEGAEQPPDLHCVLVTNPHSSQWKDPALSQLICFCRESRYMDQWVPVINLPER

T2: GADD45β (growth arrest and DNA damage-inducible 45 beta) (human), O75293
T2 chain: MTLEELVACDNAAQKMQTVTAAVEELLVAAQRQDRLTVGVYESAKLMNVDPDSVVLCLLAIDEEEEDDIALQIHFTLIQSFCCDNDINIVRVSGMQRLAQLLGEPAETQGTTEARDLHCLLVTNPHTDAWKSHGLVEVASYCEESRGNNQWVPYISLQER

B1: GADD45α (growth arrest and DNA damage-inducible 45 alpha), P24522 1-165 (protein)
chain: T1 chain
modifications: here or on the partner: biotin (EZ-Link Sulfo-NHS-LC-Biotinylation Kit), in the BLI experiment only; biotin (EZ-Link Sulfo-NHS-LC-Biotinylation Kit), in the BLI experiment only
B2: GADD45β (growth arrest and DNA damage-inducible 45 beta), O75293 1-160 (protein)
chain: T2 chain
modifications: here or on the partner: biotin (EZ-Link Sulfo-NHS-LC-Biotinylation Kit), in the BLI experiment only; biotin (EZ-Link Sulfo-NHS-LC-Biotinylation Kit), in the BLI experiment only

Experiments:
[1] = target: T1, GADD45α (growth arrest and DNA …); test: SEC-MALS; SEC-LS, Superdex S200 10/30 with miniDAWN TREOS; 0.5-1.0 mg loaded; 20 mM Tris-HCl pH 7.5, 100 mM NaCl, 5 mM DTT, 5% glycerol (the results and the legend name only 5 mM DTT in 20 mM Tris-HCl pH 7.5); oligomeric state of the native protein; both purified; details: remark: other sources report otherwise
[2] = target: T2, GADD45β (growth arrest and DNA …); test: as above; details: remark: other sources report otherwise

Binder	binding [1]	binding [2]
B1	no binding (tested: 0.5–1.0 mg loaded on the column)	
B2		no binding (tested: 0.5–1.0 mg loaded on the column)
